The target in the experiment is T1, CDCP1-myc overexpressed in MDCK cells (human) (UniProt Q9H5V8).
T1 sequence: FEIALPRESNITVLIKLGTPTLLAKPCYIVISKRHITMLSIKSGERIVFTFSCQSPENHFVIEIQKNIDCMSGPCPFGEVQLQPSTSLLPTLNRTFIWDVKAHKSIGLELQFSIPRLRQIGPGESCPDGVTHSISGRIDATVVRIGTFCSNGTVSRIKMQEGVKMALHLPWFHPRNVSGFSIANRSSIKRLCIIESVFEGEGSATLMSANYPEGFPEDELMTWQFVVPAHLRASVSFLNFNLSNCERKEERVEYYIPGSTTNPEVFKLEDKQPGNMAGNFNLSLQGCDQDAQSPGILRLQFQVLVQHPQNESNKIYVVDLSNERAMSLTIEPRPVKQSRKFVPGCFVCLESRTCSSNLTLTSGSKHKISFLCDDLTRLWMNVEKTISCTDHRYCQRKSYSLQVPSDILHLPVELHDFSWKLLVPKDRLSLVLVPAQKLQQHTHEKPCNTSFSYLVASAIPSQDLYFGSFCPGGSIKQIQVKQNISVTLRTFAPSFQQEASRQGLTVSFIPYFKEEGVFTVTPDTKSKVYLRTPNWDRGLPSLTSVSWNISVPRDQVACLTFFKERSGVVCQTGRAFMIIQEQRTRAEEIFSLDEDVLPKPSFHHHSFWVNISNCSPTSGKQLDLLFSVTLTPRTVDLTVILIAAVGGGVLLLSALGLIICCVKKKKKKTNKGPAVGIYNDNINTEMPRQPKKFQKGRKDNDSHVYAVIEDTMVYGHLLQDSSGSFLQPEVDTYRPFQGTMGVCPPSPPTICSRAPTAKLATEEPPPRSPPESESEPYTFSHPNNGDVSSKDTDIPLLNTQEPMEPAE
Kind of experiment: co-IP; DRM fractions of CDCP1-myc-overexpressing MDCK cells; immunoprecipitation with an anti-myc-tag, anti-Src, anti-Lyn or anti-Yes antibody; immunoblotting. On the technique in general: Immunoblotting shows a protein as a band on a membrane.

Sequences of proteins named here, by UniProt entry; tags and fusion partners are left off.
UniProt Q28923: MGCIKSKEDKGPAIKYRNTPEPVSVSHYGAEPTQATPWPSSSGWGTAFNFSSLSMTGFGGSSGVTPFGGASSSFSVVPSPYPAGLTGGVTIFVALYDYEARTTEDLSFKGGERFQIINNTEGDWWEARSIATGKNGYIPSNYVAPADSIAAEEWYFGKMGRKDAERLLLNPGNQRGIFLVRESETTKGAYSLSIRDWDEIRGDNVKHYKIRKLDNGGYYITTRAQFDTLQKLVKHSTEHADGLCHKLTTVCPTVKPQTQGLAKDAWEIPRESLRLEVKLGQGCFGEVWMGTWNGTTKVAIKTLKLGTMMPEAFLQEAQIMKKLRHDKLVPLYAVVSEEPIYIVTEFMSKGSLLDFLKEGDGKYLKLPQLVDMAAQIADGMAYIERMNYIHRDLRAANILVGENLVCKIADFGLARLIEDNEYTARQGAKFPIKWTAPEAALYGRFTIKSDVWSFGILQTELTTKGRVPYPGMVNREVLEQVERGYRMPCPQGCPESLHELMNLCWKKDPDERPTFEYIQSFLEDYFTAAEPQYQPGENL

No constants are given. Whether binding was seen depends on the method and setting. In cells and extracts the contact can be indirect. Some binding calls cover weakened binding; strength is not graded here. Sequences can lack the tags named with a protein.

“Yes, endogenous in MDCK cells (from UniProt Q28923 1-539) (enzyme)”: the binding entry is recorded as “binds”.

Source of the values: article PMC7893822.
